This is one part of the list.
Legend:
Assay in all cases: log2 fold change, soluble protein after heating vs DMSO (PISA); higher = thermal stabilisation; K562 cells, 10 uM, 30 min; active = over 0.2 and 3.5 SD of the protein, either way, in both replicates (recomputed)
[1] = compound: CN1CCN(CCOc2cc(OC3CCOCC3)c3c(Nc4c(Cl)ccc5c4OCO5)ncnc3c2)CC1 [saracatinib]
Outline: (§1)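 Thermal stability values are relative to control samples and come from duplicates. They are expressed as log2 fold changes. For measurement, K562 cells (2×10^6 cells/mL) received 10 μM compound for 30 min, and aliquots were heated for 3 min over 48°C-58°C, pooled, and extracted at 4°C in PBS with 0.5% NP-40. Soluble protein, the supernatant after 21,000xg for 90 min, was quantified by TMTpro 16plex LC-MS/MS with equalised channel sums.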

The chains behind the UniProt entries cited, without tags or fusion partners. Where a name states a change or a piece, a line headed by the entry shows the natural chain unless it says otherwise.
UniProt Q6RFH5: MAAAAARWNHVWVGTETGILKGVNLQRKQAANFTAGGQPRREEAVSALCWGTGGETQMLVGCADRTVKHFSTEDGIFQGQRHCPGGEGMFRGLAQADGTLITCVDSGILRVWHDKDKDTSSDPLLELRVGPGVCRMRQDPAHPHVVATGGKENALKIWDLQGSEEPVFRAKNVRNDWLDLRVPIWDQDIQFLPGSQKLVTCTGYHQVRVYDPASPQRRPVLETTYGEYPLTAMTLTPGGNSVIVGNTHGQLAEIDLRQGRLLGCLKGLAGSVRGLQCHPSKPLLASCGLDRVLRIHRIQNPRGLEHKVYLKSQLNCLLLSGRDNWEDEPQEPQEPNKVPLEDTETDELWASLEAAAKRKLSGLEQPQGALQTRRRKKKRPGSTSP
UniProt Q9H1Z4: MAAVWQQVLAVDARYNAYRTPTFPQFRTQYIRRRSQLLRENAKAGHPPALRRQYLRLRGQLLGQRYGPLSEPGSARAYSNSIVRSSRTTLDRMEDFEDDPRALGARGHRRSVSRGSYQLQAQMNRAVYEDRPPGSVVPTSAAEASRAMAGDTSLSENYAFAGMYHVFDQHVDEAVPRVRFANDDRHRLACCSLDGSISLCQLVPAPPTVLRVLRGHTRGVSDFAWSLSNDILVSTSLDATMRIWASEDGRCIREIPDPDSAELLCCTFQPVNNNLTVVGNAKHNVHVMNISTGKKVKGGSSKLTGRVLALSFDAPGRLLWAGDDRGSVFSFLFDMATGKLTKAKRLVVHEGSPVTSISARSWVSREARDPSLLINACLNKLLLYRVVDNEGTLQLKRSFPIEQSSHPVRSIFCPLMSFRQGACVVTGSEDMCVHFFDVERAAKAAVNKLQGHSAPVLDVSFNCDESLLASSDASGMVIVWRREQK
UniProt Q969T9: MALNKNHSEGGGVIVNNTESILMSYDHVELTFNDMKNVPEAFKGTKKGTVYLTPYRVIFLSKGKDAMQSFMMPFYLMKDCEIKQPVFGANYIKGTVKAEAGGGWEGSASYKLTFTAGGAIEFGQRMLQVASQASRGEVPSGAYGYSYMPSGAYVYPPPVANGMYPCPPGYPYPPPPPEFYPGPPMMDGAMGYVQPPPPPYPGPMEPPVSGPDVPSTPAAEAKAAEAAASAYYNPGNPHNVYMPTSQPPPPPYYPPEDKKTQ
UniProt Q9P2S5: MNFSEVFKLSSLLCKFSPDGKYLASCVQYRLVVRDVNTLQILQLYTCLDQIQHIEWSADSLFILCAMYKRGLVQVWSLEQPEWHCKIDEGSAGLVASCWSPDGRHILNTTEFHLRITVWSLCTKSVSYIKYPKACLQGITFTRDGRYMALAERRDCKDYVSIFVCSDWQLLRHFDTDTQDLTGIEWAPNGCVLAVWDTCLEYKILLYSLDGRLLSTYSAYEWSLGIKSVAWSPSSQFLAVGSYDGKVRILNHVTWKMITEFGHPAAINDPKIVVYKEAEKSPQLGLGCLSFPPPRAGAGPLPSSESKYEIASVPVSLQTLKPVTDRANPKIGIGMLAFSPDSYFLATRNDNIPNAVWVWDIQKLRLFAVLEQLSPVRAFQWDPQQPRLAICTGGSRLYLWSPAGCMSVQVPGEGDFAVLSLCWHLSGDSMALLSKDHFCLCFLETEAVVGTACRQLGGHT
UniProt Q9NNW5: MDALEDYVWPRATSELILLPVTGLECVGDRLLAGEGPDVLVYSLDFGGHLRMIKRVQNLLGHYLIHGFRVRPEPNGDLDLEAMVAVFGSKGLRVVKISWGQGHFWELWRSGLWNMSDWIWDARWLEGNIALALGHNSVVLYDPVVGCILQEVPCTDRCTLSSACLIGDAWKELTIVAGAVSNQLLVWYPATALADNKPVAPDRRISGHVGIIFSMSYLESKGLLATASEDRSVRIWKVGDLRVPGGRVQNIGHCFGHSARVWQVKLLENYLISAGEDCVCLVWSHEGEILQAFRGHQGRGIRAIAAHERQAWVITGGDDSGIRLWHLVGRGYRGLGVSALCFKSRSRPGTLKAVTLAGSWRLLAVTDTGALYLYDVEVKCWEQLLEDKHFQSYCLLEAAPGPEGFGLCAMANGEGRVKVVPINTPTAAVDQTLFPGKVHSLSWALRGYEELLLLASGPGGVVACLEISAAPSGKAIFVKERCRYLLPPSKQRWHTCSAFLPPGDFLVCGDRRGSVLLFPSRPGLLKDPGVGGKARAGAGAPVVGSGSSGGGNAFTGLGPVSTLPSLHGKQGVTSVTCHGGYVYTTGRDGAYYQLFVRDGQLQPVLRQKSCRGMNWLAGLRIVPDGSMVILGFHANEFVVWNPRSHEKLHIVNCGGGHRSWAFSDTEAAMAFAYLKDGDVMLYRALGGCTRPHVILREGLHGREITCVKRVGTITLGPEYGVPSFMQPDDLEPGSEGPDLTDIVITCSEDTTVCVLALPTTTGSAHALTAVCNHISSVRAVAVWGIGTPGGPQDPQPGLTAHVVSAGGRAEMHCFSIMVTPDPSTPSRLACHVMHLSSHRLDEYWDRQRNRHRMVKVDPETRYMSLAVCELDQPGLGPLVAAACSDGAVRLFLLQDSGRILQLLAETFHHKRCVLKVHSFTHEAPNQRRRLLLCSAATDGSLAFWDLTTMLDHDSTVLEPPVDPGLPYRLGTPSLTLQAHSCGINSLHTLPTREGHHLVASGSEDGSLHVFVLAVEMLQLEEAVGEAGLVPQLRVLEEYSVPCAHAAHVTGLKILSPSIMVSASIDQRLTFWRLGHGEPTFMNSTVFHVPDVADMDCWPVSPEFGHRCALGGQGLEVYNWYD
UniProt Q9Y4P8: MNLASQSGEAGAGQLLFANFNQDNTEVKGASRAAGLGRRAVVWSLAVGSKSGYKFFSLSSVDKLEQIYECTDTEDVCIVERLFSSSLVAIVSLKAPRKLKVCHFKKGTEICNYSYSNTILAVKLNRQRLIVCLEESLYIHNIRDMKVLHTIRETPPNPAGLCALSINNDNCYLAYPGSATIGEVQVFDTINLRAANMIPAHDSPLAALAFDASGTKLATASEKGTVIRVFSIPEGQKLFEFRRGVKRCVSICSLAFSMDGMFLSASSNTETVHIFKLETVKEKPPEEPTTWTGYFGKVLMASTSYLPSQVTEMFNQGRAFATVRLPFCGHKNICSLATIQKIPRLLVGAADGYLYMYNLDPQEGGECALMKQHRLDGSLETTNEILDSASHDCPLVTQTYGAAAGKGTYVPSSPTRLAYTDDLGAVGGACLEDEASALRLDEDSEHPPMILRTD
UniProt Q9Y2W2: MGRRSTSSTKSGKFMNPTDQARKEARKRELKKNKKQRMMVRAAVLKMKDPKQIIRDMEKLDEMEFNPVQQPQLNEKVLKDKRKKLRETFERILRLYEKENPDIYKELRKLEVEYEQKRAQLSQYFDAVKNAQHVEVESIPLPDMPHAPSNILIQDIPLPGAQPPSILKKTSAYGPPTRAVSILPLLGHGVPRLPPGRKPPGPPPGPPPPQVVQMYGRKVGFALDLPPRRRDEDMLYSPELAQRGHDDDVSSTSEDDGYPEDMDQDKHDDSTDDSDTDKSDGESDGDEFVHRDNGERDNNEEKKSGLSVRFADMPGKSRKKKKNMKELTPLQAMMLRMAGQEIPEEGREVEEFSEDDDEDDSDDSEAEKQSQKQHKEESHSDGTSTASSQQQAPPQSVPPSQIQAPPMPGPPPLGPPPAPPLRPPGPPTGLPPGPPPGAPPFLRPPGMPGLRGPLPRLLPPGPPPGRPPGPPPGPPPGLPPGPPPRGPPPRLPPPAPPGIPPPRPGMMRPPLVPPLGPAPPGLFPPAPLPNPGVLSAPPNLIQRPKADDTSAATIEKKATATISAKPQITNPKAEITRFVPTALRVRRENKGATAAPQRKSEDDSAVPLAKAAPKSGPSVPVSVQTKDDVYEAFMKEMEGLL
UniProt O00401, whole entry, looked up: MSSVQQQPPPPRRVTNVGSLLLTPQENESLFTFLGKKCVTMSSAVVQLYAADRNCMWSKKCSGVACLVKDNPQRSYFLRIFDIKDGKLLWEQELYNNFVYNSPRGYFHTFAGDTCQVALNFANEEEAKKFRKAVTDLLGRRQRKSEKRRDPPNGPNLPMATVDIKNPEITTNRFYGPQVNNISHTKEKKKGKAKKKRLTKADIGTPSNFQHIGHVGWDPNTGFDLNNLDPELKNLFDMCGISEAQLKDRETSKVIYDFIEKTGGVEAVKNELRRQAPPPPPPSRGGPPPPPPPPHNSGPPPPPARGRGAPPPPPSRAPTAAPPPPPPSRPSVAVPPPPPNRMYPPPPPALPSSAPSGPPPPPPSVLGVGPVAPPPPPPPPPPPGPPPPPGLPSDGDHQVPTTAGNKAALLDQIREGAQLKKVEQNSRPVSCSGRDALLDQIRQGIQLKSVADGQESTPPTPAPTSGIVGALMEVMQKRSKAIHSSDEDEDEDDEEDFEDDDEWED
UniProt Q2M389: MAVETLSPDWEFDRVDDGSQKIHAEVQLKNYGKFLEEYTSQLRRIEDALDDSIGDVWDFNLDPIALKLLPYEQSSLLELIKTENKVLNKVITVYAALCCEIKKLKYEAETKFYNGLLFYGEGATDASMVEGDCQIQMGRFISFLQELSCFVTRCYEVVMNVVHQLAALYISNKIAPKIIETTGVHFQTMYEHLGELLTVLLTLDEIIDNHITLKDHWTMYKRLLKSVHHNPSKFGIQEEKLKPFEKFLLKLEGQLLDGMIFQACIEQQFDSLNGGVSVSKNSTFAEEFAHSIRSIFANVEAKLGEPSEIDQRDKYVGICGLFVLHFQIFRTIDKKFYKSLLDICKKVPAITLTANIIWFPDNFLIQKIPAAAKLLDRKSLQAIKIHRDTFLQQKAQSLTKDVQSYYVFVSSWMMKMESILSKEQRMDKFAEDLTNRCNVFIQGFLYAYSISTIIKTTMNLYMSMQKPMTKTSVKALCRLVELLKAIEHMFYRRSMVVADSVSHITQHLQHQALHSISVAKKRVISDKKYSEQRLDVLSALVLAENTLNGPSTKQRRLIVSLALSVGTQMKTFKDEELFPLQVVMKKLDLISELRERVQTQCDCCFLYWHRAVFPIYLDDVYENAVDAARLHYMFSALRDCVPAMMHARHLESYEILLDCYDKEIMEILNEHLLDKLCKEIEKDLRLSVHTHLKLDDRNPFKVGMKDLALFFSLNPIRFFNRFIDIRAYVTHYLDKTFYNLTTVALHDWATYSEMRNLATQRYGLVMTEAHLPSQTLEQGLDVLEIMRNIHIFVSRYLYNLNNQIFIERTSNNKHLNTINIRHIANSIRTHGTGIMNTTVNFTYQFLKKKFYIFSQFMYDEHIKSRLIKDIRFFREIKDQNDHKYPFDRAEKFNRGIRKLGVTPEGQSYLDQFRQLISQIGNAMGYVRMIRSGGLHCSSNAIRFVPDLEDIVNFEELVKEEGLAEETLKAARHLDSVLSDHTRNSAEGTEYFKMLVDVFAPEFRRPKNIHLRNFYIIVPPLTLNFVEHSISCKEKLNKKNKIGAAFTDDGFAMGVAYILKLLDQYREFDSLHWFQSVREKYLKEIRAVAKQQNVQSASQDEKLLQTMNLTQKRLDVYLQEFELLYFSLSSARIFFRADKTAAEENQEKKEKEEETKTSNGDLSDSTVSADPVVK
UniProt Q96GC9: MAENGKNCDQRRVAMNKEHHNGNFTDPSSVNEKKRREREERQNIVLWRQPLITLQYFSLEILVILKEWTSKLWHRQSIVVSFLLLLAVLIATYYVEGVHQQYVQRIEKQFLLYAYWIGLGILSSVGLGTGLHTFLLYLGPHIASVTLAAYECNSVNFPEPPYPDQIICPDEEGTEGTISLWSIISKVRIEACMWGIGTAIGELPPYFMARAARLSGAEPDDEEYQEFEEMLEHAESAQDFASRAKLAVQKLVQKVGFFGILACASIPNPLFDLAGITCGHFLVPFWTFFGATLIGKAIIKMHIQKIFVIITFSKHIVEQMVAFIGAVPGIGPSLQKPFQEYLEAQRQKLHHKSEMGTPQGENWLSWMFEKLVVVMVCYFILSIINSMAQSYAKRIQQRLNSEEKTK
UniProt P04004: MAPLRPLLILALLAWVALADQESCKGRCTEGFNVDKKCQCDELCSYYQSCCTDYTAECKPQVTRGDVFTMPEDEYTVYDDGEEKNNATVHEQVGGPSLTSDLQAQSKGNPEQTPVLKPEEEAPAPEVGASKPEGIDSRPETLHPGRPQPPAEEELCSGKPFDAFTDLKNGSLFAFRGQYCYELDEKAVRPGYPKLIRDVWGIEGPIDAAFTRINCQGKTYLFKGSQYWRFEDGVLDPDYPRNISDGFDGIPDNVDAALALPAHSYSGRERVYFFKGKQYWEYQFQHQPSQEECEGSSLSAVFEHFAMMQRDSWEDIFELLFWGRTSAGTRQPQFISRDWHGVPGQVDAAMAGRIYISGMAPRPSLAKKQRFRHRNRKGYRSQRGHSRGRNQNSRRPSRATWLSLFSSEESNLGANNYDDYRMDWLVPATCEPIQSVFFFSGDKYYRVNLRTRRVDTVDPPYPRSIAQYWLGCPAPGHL

[2] = compound: CN1CCN(c2nc(C3=C(c4c[nH]c5ccccc45)C(=O)NC3=O)c3ccccc3n2)CC1 [sotrastaurin]
Outline: as §1

[3] = compound: CN1CC[C@H](c2c(O)cc(O)c3c(=O)cc(-c4ccccc4Cl)oc23)[C@H](O)C1 [alvocidib]
Outline: as §1

[4] = compound: CN1CCc2c(c3ccccc3n2Cc2ccc(C(=O)NO)cc2)C1 [Tubastatin A]
Outline: as §1

[5] = compound: CNC(=O)C1=CC=CC=C1NC2=NC(=NC=C2Cl)NC3=C(C=C(C=C3)N4CCOCC4)OC
Outline: as §1

[6] = compound: CNC(=O)c1ccc(Nc2ncc(C(F)(F)F)c(NCc3nccnc3N(C)S(C)(=O)=O)n2)cc1 [defactinib]
Outline: as §1

[7] = compound: CNCc1ccc(-c2[nH]c3cc(F)cc4c3c2CCNC4=O)cc1 [rucaparib]
Outline: as §1

[8] = compound: CNc1nc(-c2ccc3c(N)n[nH]c3c2)cc(N2C[C@@H](C(=O)NC3CCCCC3)CC[C@H]2C)n1
Outline: as §1

[9] = compound: COC(=O)N[C@@H](C)CNc1nccc(-c2cn(C(C)C)nc2-c2cc(Cl)cc(NS(C)(=O)=O)c2F)n1 [encorafenib]
Outline: as §1

[10] = compound: COC(=O)[C@H](CCSC)NC(=O)C1=C(C=C(C=C1)NC[C@H](CS)N)C2=CC=CC=C2
Outline: as §1

[11] = compound: COC1=CC=C(C=C1)CN2C=CC3=C2C=C(C=C3)C(=O)NO
Outline: as §1

[12] = compound: CON(C)C(=O)N1N=C(c2cc(F)ccc2F)S[C@@]1(CCCN)c1ccccc1 [filanesib]
Outline: as §1

[13] = compound: CO[C@H]1C[C@@H]2CC[C@@H](C)[C@@](O)(O2)C(=O)C(=O)N2CCCC[C@H]2C(=O)O[C@H]([C@H](C)C[C@@H]2CC[C@H](n3cnnn3)[C@H](OC)C2)CC(=O)[C@H](C)/C=C(\C)[C@@H](O)[C@@H](OC)C(=O)[C@H](C)C[C@H](C)/C=C/C=C/C=C/1C [zotarolimus]
Outline: as §1

[14] = compound: COc1cc(C(=O)O)ccc1NC(=O)[C@@H]1N[C@@H](CC(C)(C)C)[C@](C#N)(c2ccc(Cl)cc2F)[C@H]1c1cccc(Cl)c1F [idasanutlin]
Outline: as §1

[15] = compound: COc1cc(Nc2ncc3c(n2)-c2ccc(Cl)cc2C(c2c(F)cccc2OC)=NC3)ccc1C(=O)O [alisertib]
Outline: as §1

[16] = compound: COc1cc2nc(-c3cc(F)ccc3O)nc(N[C@@H]3CNC[C@H]3C(C)(C)O)c2cc1OC
Outline: as §1

[17] = compound: COc1cc2ncnc(Nc3ccc(F)c(Cl)c3)c2cc1OCCCN1CCOCC1 [gefitinib]
Outline: as §1

[18] = compound: COc1cccc2cc(-c3nc([C@H]4CC[C@H](C(=O)O)CC4)n4ncnc(N)c34)[nH]c12
Outline: as §1

[19] = compound: CS(=O)(=O)CCNCc1ccc(-c2ccc3ncnc(Nc4ccc(OCc5cccc(F)c5)c(Cl)c4)c3c2)o1 [lapatinib]
Outline: as §1

[20] = compound: CS(=O)(=O)N1CCN(Cc2cc3nc(-c4cccc5[nH]ncc45)nc(N4CCOCC4)c3s2)CC1 [pictilisib]
Outline: as §1

Measured: log2 fold change

WDR74 (UniProt Q6RFH5)
inactive: [1] -0.078 | [2] 0.001 | [3] 0.203 | [4] 0.016 | [5] 0.148 | [6] 0.304 | [7] 0.223 | [8] -0.014 | [9] 0.037 | [10] 0.016 | [11] -0.141 | [12] 0.16 | [13] 0.014 | [14] 0.118 | [15] -0.131 | [16] 0.036 | [17] -0.047 | [18] -0.034 | [19] 0.047 | [20] -0.09

WDR13 (UniProt Q9H1Z4)
inactive: [1] 0.029 | [2] -0.01 | [3] -0.088 | [4] -0.019 | [5] -0.083 | [6] -0.06 | [7] 0.048 | [8] -0.043 | [9] -0.025 | [10] -0.012 | [11] -0.056 | [12] 0.034 | [13] 0.095 | [14] -0.09 | [15] -0.057 | [16] -0.037 | [17] 0.095 | [18] 0.032 | [19] 0.012 | [20] 0.128

WBP2 (UniProt Q969T9)
inactive: [1] 0.06 | [2] -0.003 | [3] -0.046 | [4] -0.007 | [5] -0.013 | [6] -0.015 | [7] -0.016 | [8] -0.074 | [9] 0.003 | [10] 0.04 | [11] 0.036 | [12] -0.159 | [13] -0.012 | [14] 0.022 | [15] -0.014 | [16] -0.035 | [17] -0.013 | [18] 0 | [19] 0.017 | [20] 0.005

WIZ (UniProt O95785)
inactive: [1] -0.059 | [2] -0.007 | [3] -0.026 | [4] 0.003 | [5] -0.108 | [6] -0.036 | [7] 0.056 | [8] 0.003 | [9] 0.019 | [10] -0.04 | [11] -0.054 | [12] -0.001 | [13] -0.014 | [14] 0 | [15] -0.018 | [16] -0.017 | [17] -0.043 | [18] 0.027 | [19] 0.014 | [20] 0.031

WRAP73 (UniProt Q9P2S5)
inactive: [1] 0.018 | [2] -0.033 | [3] 0.011 | [4] 0.005 | [5] 0.016 | [6] -0.037 | [7] 0.011 | [8] -0.053 | [9] -0.002 | [10] -0.028 | [11] 0.066 | [12] -0.055 | [13] 0.02 | [14] -0.041 | [15] -0.069 | [16] 0.008 | [17] -0.041 | [18] 0.069 | [19] 0.001 | [20] 0.04

WDR6 (UniProt Q9NNW5)
inactive: [1] -0.004 | [2] 0.174 | [3] 0.028 | [4] 0.023 | [5] -0.019 | [6] -0.006 | [7] -0.046 | [8] 0.01 | [9] -0.03 | [10] -0.013 | [11] -0.054 | [12] -0.013 | [13] 0.008 | [14] -0.011 | [15] -0.095 | [16] 0.002 | [17] 0.004 | [18] 0.006 | [19] 0.037 | [20] -0.002

WIPI2 (UniProt Q9Y4P8)
inactive: [1] 0.066 | [2] 0.012 | [3] -0.054 | [4] 0.025 | [5] 0.006 | [6] 0.007 | [7] 0.008 | [8] 0.014 | [9] 0.061 | [10] -0.003 | [11] -0.073 | [12] -0.07 | [13] -0.009 | [14] -0.081 | [15] -0.067 | [16] -0.159 | [17] 0.004 | [18] 0.059 | [19] -0.006 | [20] 0.029

VWDE (UniProt Q8N2E2)
inactive: [1] -0.114 | [2] 0.018 | [3] 0 | [4] 0.068 | [5] -0.016 | [6] 0.032 | [7] 0.033 | [8] 0.025 | [9] 0.028 | [10] 0.028 | [11] -0.006 | [12] 0.1 | [13] 0.052 | [14] 0.036 | [15] -0.028 | [16] -0.008 | [17] 0.033 | [18] -0.024 | [19] 0.093 | [20] -0.014

Random excerpt: 2 entries already listed.
VWDE (UniProt Q8N2E2)
inactive: [1] -0.114 | [2] 0.018 | [3] 0 | [4] 0.068 | [5] -0.016 | [6] 0.032 | [7] 0.033 | [8] 0.025 | [9] 0.028 | [10] 0.028 | [11] -0.006 | [12] 0.1 | [13] 0.052 | [14] 0.036 | [15] -0.028 | [16] -0.008 | [17] 0.033 | [18] -0.024 | [19] 0.093 | [20] -0.014

WDR13 (UniProt Q9H1Z4)
inactive: [1] 0.029 | [2] -0.01 | [3] -0.088 | [4] -0.019 | [5] -0.083 | [6] -0.06 | [7] 0.048 | [8] -0.043 | [9] -0.025 | [10] -0.012 | [11] -0.056 | [12] 0.034 | [13] 0.095 | [14] -0.09 | [15] -0.057 | [16] -0.037 | [17] 0.095 | [18] 0.032 | [19] 0.012 | [20] 0.128

(list continues)

WBP11 (UniProt Q9Y2W2)
inactive: [1] 0.068 | [2] 0.038 | [3] 0.023 | [4] -0.024 | [5] -0.046 | [6] 0.035 | [7] 0.014 | [8] -0.018 | [9] -0.014 | [10] 0.046 | [11] -0.012 | [12] 0.029 | [13] -0.017 | [14] 0.031 | [15] -0.026 | [16] -0.021 | [17] -0.006 | [18] 0.035 | [19] -0.006 | [20] -0.023

WASL (UniProt O00401)
inactive: [1] 0.063 | [2] 0.007 | [3] -0.066 | [4] 0.003 | [5] -0.001 | [6] -0.01 | [7] -0.02 | [8] 0.029 | [9] -0.023 | [10] -0.024 | [11] 0.04 | [12] -0.003 | [13] -0.068 | [14] -0.086 | [15] 0.013 | [16] 0.027 | [17] 0.175 | [18] -0.015 | [19] 0.033 | [20] 0.049

WASHC4 (UniProt Q2M389)
inactive: [1] 0.072 | [2] -0.101 | [3] -0.071 | [4] 0.109 | [5] 0.02 | [6] -0.024 | [7] 0.221 | [8] 0.078 | [9] 0.117 | [10] -0.043 | [11] -0.014 | [12] 0.035 | [13] -0.008 | [14] -0.002 | [15] -0.039 | [16] 0.163 | [17] 0.19 | [18] -0.029 | [19] -0.081 | [20] 0.097

VMP1 (UniProt Q96GC9)
inactive: [1] 0.084 | [2] 0.25 | [3] -0.015 | [4] -0.018 | [5] 0.009 | [6] -0.033 | [7] 0 | [8] -0.011 | [9] 0.008 | [10] -0.005 | [11] -0.041 | [12] -0.075 | [13] 0.02 | [14] -0.078 | [15] -0.15 | [16] -0.081 | [17] -0.005 | [18] 0.065 | [19] 0.022 | [20] 0.002

WDR36 (UniProt Q8NI36)
inactive: [1] -0.056 | [2] 0.026 | [3] 0.15 | [4] 0 | [5] -0.016 | [6] 0.249 | [7] 0.201 | [8] 0.081 | [9] 0.123 | [10] -0.019 | [11] -0.032 | [12] 0.293 | [13] 0.008 | [14] 0.134 | [15] -0.075 | [16] 0.157 | [17] -0.036 | [18] -0.086 | [19] 0.025 | [20] -0.028

WDTC1 (UniProt Q8N5D0)
inactive: [1] 0.085 | [2] 0.007 | [3] -0.021 | [4] 0.036 | [5] 0.013 | [6] -0.038 | [7] 0.099 | [8] 0.023 | [9] -0.006 | [10] 0.025 | [11] -0.062 | [12] -0.003 | [13] 0.035 | [14] -0.027 | [15] -0.169 | [16] 0.035 | [17] -0.135 | [18] 0.084 | [19] 0.097 | [20] 0.016

VTN (UniProt P04004)
inactive: [1] -0.109 | [2] 0.166 | [3] -0.147 | [4] -0.031 | [5] 0.079 | [6] 0.041 | [7] -0.04 | [8] 0.027 | [9] 0.099 | [10] 0.136 | [11] -0.06 | [12] 0.241 | [13] -0.056 | [14] 0.006 | [15] -0.14 | [16] 0.076 | [17] -0.023 | [18] 0.2 | [19] -0.11

VPS26A (UniProt O75436)
inactive: [1] 0.028 | [2] -0.009 | [3] -0.049 | [4] -0.015 | [5] -0.001 | [6] -0.076 | [7] -0.083 | [8] -0.006 | [9] 0.053 | [10] -0.08 | [11] 0.013 | [12] -0.072 | [13] 0.011 | [14] -0.149 | [15] -0.066 | [16] -0.01 | [17] -0.045 | [18] 0.044 | [19] 0.03 | [20] -0.057

Source: the supplement of paper PMC10849652
